Laboratory results as given in PMC4743010.
These are yes or no findings as the source states them, for the method shown. For some of these results: Binding seen in cells or lysates may run through a third protein. Some entries that bind do so weakly or less than the wild type. For some of these results: Tags and fused reporters may be left off the sequences shown.

Chains of the proteins cited; added tags and fusions are not shown.
UniProt Q96Q15: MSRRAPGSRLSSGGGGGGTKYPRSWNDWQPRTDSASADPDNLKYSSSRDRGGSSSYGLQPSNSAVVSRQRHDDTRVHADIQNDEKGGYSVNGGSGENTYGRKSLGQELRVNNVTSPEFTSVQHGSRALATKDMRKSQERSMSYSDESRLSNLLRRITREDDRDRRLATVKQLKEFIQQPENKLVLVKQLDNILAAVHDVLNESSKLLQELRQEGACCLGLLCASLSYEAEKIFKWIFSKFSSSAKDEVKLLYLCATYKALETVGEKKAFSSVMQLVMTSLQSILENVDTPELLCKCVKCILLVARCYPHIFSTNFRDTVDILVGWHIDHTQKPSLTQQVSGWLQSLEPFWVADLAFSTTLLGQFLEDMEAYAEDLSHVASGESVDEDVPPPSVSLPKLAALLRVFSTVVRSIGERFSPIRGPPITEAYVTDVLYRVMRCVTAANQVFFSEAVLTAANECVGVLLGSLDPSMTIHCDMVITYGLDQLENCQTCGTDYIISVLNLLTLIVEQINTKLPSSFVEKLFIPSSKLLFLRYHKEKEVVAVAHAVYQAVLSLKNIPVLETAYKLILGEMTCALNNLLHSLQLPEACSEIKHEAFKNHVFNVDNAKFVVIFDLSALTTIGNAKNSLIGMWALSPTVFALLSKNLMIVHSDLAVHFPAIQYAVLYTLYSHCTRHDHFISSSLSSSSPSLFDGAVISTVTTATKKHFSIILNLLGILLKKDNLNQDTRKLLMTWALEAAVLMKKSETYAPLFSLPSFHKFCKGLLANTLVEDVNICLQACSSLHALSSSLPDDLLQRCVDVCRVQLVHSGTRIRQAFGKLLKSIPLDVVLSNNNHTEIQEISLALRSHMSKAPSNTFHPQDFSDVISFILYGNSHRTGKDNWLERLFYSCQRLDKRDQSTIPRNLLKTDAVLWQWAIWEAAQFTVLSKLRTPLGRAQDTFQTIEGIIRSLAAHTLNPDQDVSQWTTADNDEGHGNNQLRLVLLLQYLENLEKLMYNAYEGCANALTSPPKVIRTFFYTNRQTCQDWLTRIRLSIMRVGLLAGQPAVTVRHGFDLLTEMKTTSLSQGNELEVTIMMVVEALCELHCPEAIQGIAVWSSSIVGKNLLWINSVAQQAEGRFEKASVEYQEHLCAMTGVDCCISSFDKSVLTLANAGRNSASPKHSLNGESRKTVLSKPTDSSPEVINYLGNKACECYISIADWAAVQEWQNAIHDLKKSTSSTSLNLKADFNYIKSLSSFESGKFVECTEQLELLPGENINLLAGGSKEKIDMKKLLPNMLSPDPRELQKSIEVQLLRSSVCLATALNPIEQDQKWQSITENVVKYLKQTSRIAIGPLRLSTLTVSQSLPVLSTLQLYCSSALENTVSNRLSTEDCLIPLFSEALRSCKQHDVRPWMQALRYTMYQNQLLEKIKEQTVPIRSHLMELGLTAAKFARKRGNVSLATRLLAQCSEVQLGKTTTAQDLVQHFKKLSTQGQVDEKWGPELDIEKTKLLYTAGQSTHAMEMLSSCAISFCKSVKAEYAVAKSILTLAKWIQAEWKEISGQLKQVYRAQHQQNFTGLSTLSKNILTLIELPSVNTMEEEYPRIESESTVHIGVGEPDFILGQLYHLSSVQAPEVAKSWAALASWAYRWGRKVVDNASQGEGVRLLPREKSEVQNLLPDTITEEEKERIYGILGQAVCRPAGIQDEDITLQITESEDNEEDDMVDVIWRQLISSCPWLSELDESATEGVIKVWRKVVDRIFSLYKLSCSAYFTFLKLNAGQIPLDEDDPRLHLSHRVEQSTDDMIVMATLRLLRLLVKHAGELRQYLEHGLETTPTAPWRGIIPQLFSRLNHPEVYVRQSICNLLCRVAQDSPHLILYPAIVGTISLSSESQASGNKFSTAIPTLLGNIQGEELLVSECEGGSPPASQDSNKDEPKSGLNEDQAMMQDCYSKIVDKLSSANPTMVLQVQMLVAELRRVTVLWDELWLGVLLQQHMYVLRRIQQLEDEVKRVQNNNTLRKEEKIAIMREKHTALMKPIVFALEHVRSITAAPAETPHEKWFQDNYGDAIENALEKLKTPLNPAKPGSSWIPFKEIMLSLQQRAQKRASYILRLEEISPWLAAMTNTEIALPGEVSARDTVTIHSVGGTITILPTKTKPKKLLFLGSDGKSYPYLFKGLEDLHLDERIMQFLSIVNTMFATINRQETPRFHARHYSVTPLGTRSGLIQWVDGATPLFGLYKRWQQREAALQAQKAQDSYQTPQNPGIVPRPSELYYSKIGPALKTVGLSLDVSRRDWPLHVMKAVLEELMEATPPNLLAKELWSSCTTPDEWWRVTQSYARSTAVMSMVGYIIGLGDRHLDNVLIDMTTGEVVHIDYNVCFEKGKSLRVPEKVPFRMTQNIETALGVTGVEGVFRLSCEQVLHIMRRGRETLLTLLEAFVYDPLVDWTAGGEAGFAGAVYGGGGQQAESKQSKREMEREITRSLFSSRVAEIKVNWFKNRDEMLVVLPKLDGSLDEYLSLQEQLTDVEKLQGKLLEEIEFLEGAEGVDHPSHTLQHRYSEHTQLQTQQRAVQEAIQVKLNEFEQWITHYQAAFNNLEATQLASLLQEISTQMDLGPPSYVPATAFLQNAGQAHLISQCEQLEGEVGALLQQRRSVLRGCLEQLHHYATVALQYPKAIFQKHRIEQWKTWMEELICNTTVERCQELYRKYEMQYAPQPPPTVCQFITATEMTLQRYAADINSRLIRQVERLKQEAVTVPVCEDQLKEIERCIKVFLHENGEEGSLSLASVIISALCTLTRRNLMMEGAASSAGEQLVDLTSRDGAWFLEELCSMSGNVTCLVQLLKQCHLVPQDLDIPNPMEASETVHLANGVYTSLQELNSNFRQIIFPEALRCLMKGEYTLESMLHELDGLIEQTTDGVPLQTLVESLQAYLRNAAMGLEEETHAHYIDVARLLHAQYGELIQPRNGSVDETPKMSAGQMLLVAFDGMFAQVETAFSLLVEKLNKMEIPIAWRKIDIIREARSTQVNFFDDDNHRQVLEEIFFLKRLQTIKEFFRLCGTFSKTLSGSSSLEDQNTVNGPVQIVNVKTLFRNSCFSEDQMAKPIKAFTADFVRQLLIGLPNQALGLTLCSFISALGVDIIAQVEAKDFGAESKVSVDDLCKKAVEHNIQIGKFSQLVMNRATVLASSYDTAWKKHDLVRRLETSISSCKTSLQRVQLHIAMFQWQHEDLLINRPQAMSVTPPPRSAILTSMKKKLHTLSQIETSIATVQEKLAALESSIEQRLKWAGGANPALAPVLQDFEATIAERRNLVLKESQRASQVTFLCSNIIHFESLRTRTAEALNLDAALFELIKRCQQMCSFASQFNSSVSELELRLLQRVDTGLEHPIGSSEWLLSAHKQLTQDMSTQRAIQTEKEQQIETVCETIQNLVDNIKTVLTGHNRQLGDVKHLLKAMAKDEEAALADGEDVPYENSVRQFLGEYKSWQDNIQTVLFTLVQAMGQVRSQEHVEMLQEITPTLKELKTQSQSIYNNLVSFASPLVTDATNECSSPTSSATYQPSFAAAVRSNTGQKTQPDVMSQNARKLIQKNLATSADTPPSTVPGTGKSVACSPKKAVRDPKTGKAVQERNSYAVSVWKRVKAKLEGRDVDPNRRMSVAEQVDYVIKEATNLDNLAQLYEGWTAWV

T1: purified FLAG-tagged full-length UPF1 (UniProt Q92900)
T1 sequence: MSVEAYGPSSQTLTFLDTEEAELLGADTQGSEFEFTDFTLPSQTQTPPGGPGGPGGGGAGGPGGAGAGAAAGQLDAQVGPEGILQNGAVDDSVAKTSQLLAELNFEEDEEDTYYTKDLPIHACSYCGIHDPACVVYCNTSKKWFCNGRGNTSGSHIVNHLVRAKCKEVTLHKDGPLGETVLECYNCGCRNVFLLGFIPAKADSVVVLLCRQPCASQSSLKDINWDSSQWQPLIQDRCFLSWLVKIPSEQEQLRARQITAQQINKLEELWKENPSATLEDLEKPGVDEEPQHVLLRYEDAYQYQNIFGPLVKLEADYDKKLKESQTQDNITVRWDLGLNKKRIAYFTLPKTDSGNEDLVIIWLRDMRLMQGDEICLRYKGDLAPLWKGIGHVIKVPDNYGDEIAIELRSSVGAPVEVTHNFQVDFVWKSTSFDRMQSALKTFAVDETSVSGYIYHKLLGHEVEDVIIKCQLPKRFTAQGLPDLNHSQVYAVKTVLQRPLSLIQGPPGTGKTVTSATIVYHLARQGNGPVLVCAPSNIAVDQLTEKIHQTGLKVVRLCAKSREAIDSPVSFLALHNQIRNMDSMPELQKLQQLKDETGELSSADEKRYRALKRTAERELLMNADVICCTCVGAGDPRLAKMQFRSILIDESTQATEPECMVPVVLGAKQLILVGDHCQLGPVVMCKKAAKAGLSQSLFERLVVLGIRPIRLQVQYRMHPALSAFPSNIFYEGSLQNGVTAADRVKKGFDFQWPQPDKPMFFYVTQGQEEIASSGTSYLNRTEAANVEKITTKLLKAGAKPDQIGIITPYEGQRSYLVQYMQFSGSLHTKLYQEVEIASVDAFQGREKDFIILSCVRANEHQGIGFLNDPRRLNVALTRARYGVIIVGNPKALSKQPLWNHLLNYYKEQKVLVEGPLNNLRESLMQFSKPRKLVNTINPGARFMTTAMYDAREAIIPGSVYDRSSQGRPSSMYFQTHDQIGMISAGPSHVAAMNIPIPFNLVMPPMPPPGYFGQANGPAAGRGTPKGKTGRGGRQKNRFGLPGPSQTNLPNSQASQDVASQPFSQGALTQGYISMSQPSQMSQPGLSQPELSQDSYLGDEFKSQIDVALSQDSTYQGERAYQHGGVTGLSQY

T2: FLAG-UPF1 (pcIneo-FLAG-UPF1) (UniProt Q92900)
T2 sequence: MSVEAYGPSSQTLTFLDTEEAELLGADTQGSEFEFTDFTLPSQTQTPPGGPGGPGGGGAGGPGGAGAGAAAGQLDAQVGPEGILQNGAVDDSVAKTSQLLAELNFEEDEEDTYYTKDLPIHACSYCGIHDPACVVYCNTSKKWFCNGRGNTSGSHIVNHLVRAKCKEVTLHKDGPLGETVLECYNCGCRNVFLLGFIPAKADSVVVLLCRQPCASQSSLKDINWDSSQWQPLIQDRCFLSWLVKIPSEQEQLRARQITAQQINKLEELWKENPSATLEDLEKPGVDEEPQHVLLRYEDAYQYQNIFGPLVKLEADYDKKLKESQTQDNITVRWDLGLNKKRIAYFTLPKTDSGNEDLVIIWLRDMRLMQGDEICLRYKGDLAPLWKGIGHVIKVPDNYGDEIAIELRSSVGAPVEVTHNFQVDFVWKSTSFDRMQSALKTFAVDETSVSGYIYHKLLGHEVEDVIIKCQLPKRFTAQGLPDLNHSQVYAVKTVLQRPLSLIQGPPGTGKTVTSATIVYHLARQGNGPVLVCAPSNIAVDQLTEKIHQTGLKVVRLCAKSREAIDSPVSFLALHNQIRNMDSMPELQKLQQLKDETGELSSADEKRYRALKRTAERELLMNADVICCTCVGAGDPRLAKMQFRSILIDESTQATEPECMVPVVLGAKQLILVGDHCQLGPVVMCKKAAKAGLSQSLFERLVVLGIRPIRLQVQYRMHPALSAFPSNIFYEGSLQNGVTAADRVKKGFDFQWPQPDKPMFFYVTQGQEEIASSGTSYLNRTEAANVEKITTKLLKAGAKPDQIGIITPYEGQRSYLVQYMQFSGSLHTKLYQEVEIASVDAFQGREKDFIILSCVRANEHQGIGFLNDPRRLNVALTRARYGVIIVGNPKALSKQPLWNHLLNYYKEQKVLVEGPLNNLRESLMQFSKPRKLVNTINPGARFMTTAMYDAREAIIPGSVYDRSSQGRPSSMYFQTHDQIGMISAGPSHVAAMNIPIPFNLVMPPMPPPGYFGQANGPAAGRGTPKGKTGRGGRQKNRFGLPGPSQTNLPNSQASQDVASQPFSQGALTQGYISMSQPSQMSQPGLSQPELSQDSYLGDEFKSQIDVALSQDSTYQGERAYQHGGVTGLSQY

T3: 3XFLAG-UPF1 wild-type (pCDNA3-3XFLAG-UPF1) (UniProt Q92900)
T3 sequence: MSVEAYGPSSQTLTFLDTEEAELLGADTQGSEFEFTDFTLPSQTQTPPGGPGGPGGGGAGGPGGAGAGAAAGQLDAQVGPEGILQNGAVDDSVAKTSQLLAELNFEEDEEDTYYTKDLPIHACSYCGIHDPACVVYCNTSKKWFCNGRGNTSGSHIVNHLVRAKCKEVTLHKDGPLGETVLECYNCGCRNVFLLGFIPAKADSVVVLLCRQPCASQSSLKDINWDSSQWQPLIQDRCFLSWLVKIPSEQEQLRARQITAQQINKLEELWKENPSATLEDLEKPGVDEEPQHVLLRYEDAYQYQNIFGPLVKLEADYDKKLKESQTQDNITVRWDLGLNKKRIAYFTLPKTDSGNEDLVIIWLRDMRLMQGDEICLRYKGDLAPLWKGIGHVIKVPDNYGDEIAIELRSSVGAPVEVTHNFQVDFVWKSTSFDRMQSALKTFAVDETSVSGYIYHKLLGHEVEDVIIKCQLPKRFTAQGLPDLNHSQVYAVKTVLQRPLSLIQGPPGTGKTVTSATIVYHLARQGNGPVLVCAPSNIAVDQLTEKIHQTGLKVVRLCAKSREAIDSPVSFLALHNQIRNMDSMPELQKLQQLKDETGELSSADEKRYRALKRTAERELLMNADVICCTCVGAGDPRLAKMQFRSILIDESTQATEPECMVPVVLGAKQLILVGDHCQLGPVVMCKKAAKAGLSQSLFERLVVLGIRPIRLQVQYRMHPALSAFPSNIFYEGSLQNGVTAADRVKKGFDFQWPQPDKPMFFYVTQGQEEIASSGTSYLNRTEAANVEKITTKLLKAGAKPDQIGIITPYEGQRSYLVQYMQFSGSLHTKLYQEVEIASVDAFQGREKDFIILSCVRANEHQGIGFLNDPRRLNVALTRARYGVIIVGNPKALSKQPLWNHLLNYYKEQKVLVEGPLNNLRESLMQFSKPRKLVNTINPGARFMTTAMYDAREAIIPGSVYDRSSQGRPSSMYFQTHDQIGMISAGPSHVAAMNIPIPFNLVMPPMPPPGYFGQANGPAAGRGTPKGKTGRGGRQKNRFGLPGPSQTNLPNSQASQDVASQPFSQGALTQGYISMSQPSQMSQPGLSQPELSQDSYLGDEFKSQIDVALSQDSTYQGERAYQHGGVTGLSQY

T4: 3XFLAG-UPF1 C126S (pCDNA3-3XFLAG-UPF1 C126S mutant) (UniProt Q92900)
T4 sequence: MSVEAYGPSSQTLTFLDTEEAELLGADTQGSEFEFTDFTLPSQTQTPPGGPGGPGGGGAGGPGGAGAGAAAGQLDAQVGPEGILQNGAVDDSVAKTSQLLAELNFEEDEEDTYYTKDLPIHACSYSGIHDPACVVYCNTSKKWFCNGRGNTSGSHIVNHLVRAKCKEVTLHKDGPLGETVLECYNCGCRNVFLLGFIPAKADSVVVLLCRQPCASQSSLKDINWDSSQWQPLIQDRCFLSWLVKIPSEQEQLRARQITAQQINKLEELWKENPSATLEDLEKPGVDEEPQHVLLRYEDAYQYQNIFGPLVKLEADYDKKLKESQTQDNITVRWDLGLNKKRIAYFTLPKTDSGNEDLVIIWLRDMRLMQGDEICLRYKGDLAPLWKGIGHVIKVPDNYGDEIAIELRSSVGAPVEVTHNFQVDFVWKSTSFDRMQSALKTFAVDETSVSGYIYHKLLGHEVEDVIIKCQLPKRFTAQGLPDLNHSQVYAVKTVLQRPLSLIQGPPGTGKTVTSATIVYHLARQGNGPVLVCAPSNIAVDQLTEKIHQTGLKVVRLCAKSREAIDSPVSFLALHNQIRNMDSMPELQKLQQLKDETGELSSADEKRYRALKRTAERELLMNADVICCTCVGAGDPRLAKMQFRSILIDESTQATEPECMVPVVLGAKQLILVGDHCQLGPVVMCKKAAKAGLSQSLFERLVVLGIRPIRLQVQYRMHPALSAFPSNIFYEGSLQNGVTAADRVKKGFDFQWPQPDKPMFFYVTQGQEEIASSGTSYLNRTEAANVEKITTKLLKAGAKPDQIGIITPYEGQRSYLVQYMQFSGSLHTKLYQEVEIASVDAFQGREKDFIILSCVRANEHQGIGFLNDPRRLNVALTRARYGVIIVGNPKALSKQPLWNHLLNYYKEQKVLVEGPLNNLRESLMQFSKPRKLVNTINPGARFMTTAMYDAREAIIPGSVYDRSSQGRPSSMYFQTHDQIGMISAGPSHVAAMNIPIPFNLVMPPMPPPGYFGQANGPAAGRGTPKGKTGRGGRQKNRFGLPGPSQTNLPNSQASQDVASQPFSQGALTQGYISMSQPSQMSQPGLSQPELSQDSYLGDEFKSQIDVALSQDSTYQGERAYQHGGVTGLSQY


Columns and labels:
[1] = molecular target: FLAG-SMG1 (pCMV6-SMG1-MYC-FLAG) (UniProt Q96Q15); experiment: co-IP; sequential: FLAG-SMG1, MYC-UPF1 and T7-DHX34 co-expressed in HEK293T; anti-FLAG IP, FLAG peptide elution, then anti-T7 agarose IP
[2] = molecular target: T1, purified FLAG-tagged full-length UPF1; experiment: pull-down; co-incubation of purified T7-DHX34 (full-length, ΔCTD, 1–809) with purified FLAG-tagged full-length UPF1 or UPF1 (115–914); performed as described previously (ref. 38); both purified
[3] = molecular target: T2, FLAG-UPF1 (pcIneo-FLAG-UPF1); experiment: co-IP; FLAG-UPF1 or FLAG-GFP co-transfected with T7-DHX34 constructs in HEK293T; anti-FLAG immunoprecipitates probed for T7-DHX34 constructs
[4] = molecular target: T3, 3XFLAG-UPF1 wild-type (pCDNA3-3XFLAG-UPF1); experiment: co-IP; sequential: 3XFLAG-UPF1 (wild-type or C126S) with T7-DHX34 or T7-YFP in HEK293T; anti-FLAG IP, FLAG peptide elution, then anti-T7 agarose IP; blot for endogenous SMG1
[5] = molecular target: T4, 3XFLAG-UPF1 C126S (pCDNA3-3XFLAG-UPF1 C126S mutant); experiment: as above

binding [1]	binding [2]	binding [3]	binding [4]	binding [5]	Binder
binds	binds	binds	binds	binds	T7-DHX34 full-length (enzyme, UniProt Q14147 1-1143) MPPPRTREGRDRRDHHRAPSEEEALEKWDWNCPETRRLLEDAFFREEDYIRQGSEECQKFWTFFERLQRFQNLKTSRKEEKDPGQPKHSIPALADLPRTYDPRYRINLSVLGPATRGSQGLGRHLPAERVAEFRRALLHYLDFGQKQAFGRLAKLQRERAALPIAQYGNRILQTLKEHQVVVVAGDTGCGKSTQVPQYLLAAGFSHVACTQPRRIACISLAKRVGFESLSQYGSQVGYQIRFESTRSAATKIVFLTVGLLLRQIQREPSLPQYEVLIVDEVHERHLHNDFLLGVLQRLLPTRPDLKVILMSATINISLFSSYFSNAPVVQVPGRLFPITVVYQPQEAEPTTSKSEKLDPRPFLRVLESIDHKYPPEERGDLLVFLSGMAEISAVLEAAQTYASHTQRWVVLPLHSALSVADQDKVFDVAPPGVRKCILSTNIAETSVTIDGIRFVVDSGKVKEMSYDPQAKLQRLQEFWISQASAEQRKGRAGRTGPGVCFRLYAESDYDAFAPYPVPEIRRVALDSLVLQMKSMSVGDPRTFPFIEPPPPASLETAILYLRDQGALDSSEALTPIGSLLAQLPVDVVIGKMLILGSMFSLVEPVLTIAAALSVQSPFTRSAQSSPECAAARRPLESDQGDPFTLFNVFNAWVQVKSERSRNSRKWCRRRGIEEHRLYEMANLRRQFKELLEDHGLLAGAQAAQVGDSYSRLQQRRERRALHQLKRQHEEGAGRRRKVLRLQEEQDGGSSDEDRAGPAPPGASDGVDIQDVKFKLRHDLAQLQAAASSAQDLSREQLALLKLVLGRGLYPQLAVPDAFNSSRKDSDQIFHTQAKQGAVLHPTCVFAGSPEVLHAQELEASNCDGSRDDKDKMSSKHQLLSFVSLLETNKPYLVNCVRIPALQSLLLFSRSLDTNGDCSRLVADGWLELQLADSESAIRLLAASLRLRARWESALDRQLAHQAQQQLEEEEEDTPVSPKEVATLSKELLQFTASKIPYSLRRLTGLEVQNMYVGPQTIPATPHLPGLFGSSTLSPHPTKGGYAVTDFLTYNCLTNDTDLYSDCLRTFWTCPHCGLHAPLTPLERIAHENTCPQAPQDGPPGAEEAALETLQKTSVLQRPYHCEACGKDFLFTPTEVLRHRKQHV
	binds	binds			T7-DHX34 (1–809) (domain or fragment, UniProt Q14147 1-809) MPPPRTREGRDRRDHHRAPSEEEALEKWDWNCPETRRLLEDAFFREEDYIRQGSEECQKFWTFFERLQRFQNLKTSRKEEKDPGQPKHSIPALADLPRTYDPRYRINLSVLGPATRGSQGLGRHLPAERVAEFRRALLHYLDFGQKQAFGRLAKLQRERAALPIAQYGNRILQTLKEHQVVVVAGDTGCGKSTQVPQYLLAAGFSHVACTQPRRIACISLAKRVGFESLSQYGSQVGYQIRFESTRSAATKIVFLTVGLLLRQIQREPSLPQYEVLIVDEVHERHLHNDFLLGVLQRLLPTRPDLKVILMSATINISLFSSYFSNAPVVQVPGRLFPITVVYQPQEAEPTTSKSEKLDPRPFLRVLESIDHKYPPEERGDLLVFLSGMAEISAVLEAAQTYASHTQRWVVLPLHSALSVADQDKVFDVAPPGVRKCILSTNIAETSVTIDGIRFVVDSGKVKEMSYDPQAKLQRLQEFWISQASAEQRKGRAGRTGPGVCFRLYAESDYDAFAPYPVPEIRRVALDSLVLQMKSMSVGDPRTFPFIEPPPPASLETAILYLRDQGALDSSEALTPIGSLLAQLPVDVVIGKMLILGSMFSLVEPVLTIAAALSVQSPFTRSAQSSPECAAARRPLESDQGDPFTLFNVFNAWVQVKSERSRNSRKWCRRRGIEEHRLYEMANLRRQFKELLEDHGLLAGAQAAQVGDSYSRLQQRRERRALHQLKRQHEEGAGRRRKVLRLQEEQDGGSSDEDRAGPAPPGASDGVDIQDVKFKLRHDLAQLQAAASSAQDLSREQLALLKLVLGRGLY
